From the odorant receptor screen of Mainland et al. (2015)
Where “and” joins values, the source holds several entries; their conditions need not be identical. Equal values may be shown once. This is one part of the list. Single wells; the ratio to wells without odorant was worked out here, and repeats agree poorly.

tested on: OR2L8 clone 1515; assay: odorant receptor activation (CRE luciferase / Renilla) (fold of no-odor wells); higher = more activation; conditions: 100 µM

SMILES | odorant receptor activation
O=CCc1ccccc1 [phenyl acetaldehyde] | 1.12
CC(C)=CCCC(C)=CC=O [citral] | 1.55
CC1CCC(C(C)C)C(O)C1 (single isomer, unassigned; (+)) [(+)-menthol] | 1.39
c1cnccn1 [pyrazine] | 0.965
CCCCCCCCC=O [nonyl aldehyde] | 1.08
CC(=O)C(C)=O [diacetyl] | 1.38
CCCCCC(C)=O [2-heptanone] | 0.904 and 0.752
C=CC(C)(O)CCC=C(C)C (stereo unspecified) [linalool] | 1.35
CC(C)C=O [isobutyraldehyde] | 0.738 and 0.918
CCCC(=O)O [butyric acid] | 1.63
CC12C=CCC1C1CCC3CC(=O)CCC3(C)C1CC2 (stereo unspecified) [androstenone] | 1.22
CC(=O)c1ccccc1 [acetophenone] | 1.21 and 0.714
CC1COCc2cc3c(cc21)C(C)(C)C(C)C3(C)C (stereo unspecified) [galaxolide] | 5.95 and 4.98
CCCCCCCC=O [octyl aldehyde] | 1.06
CC(=O)OC(C)(C)C1CC=C(C)CC1 (stereo unspecified) [terpinyl acetate] | 0.918
CCCCCCCCOC(C)=O [octyl acetate] | 0.973
CCCCCCCCCCC=O [undecanal] | 1.23
CCCCCCCOC(C)=O [heptyl acetate] | 0.713 and 1.1
O=C1CCCCCCCCCCCCCCO1 [pentadecalactone] | 0.805
CC1=NC(C)SC1C (stereo unspecified) | 0.885 and 0.898
COc1cc(C)ccc1O [2-methoxy-4-methylphenol] | 0.914
COC(=O)c1ccccc1O [methyl salicylate] | 1.08
O=C1CCCCCCCCCCCC(=O)OCCO1 [ethylene brassylate] | 1.2
CCCCO [1-butanol] | 1.62
CC=Cc1ccc(O)c(OC)c1 [isoeugenol] | 1.79 and 2.05
CC(C)C(=O)O [isobutyric acid] | 0.904 and 0.83
CC(=O)OC1CC2CCC1(C)C2(C)C (stereo unspecified) [isobornyl acetate] | 0.829 and 0.842

tested on: OR2M2 R220G/C235R clone 1494; assay: as above; conditions: 100 µM

SMILES | odorant receptor activation
O=CCc1ccccc1 [phenyl acetaldehyde] | 0.886
CC(C)=CCCC(C)=CC=O [citral] | 1.01
CC1CCC(C(C)C)C(O)C1 (single isomer, unassigned; (+)) [(+)-menthol] | 0.847
c1cnccn1 [pyrazine] | 0.859
CCCCCCCCC=O [nonyl aldehyde] | 0.966
CC(=O)C(C)=O [diacetyl] | 1.12
CCCCCC(C)=O [2-heptanone] | 0.885 and 0.832
C=CC(C)(O)CCC=C(C)C (stereo unspecified) [linalool] | 0.768
CC(C)C=O [isobutyraldehyde] | 1.01 and 1.02
CCCC(=O)O [butyric acid] | 1
CC12C=CCC1C1CCC3CC(=O)CCC3(C)C1CC2 (stereo unspecified) [androstenone] | 0.988
CC(=O)c1ccccc1 [acetophenone] | 1.03 and 0.686
CCCCCCCC=O [octyl aldehyde] | 0.898
CC(=O)OC(C)(C)C1CC=C(C)CC1 (stereo unspecified) [terpinyl acetate] | 0.915
CCCCCCCCOC(C)=O [octyl acetate] | 1.14
CCCCCCCCCCC=O [undecanal] | 1.09
CCCCCCCOC(C)=O [heptyl acetate] | 1.08 and 1.16
O=C1CCCCCCCCCCCCCCO1 [pentadecalactone] | 0.73
CC1=NC(C)SC1C (stereo unspecified) | 1.06 and 0.966
COc1cc(C)ccc1O [2-methoxy-4-methylphenol] | 0.834
COC(=O)c1ccccc1O [methyl salicylate] | 0.913
O=C1CCCCCCCCCCCC(=O)OCCO1 [ethylene brassylate] | 1.25
CCCCO [1-butanol] | 0.954
CC=Cc1ccc(O)c(OC)c1 [isoeugenol] | 1.1 and 1.92
CC(C)C(=O)O [isobutyric acid] | 1.15 and 0.812
CC(=O)OC1CC2CCC1(C)C2(C)C (stereo unspecified) [isobornyl acetate] | 1 and 1.06

tested on: OR2M3 clone 1054; assay: as above; conditions: 100 µM

SMILES | odorant receptor activation
O=CCc1ccccc1 [phenyl acetaldehyde] | 1.18
CC(C)=CCCC(C)=CC=O [citral] | 1.03
CC1CCC(C(C)C)C(O)C1 (single isomer, unassigned; (+)) [(+)-menthol] | 2.35
c1cnccn1 [pyrazine] | 0.845
CCCCCCCCC=O [nonyl aldehyde] | 1.16
CC(=O)C(C)=O [diacetyl] | 0.867
CCCCCC(C)=O [2-heptanone] | 0.631
C=CC(C)(O)CCC=C(C)C (stereo unspecified) [linalool] | 1.3
CC(C)C=O [isobutyraldehyde] | 1.09
CCCC(=O)O [butyric acid] | 1.27
CC12C=CCC1C1CCC3CC(=O)CCC3(C)C1CC2 (stereo unspecified) [androstenone] | 1.18
CC(=O)c1ccccc1 [acetophenone] | 1.67
CCCCCCC=O [heptaldehyde] | 1.17 and 1.5
CC1COCc2cc3c(cc21)C(C)(C)C(C)C3(C)C (stereo unspecified) [galaxolide] | 1.55
CCCCCCCC=O [octyl aldehyde] | 1.21
CC(=O)OC(C)(C)C1CC=C(C)CC1 (stereo unspecified) [terpinyl acetate] | 1.03
CCCCCCCCOC(C)=O [octyl acetate] | 1.3
CCCCCCCCCCC=O [undecanal] | 0.982
CCCCCCCOC(C)=O [heptyl acetate] | 0.769
O=C1CCCCCCCCCCCCCCO1 [pentadecalactone] | 1.01
CC1=NC(C)SC1C (stereo unspecified) | 1.14
COc1cc(C)ccc1O [2-methoxy-4-methylphenol] | 1.29
COC(=O)c1ccccc1O [methyl salicylate] | 1.04
O=C1CCCCCCCCCCCC(=O)OCCO1 [ethylene brassylate] | 1.26
CCCCO [1-butanol] | 1.69
CC=Cc1ccc(O)c(OC)c1 [isoeugenol] | 1.26
CC(C)C(=O)O [isobutyric acid] | 0.864
CC(=O)OC1CC2CCC1(C)C2(C)C (stereo unspecified) [isobornyl acetate] | 0.626
